Test results published in patent US20070224124A1 (UNIVERSITY OF SOUTH FLORIDA, published 2007).
Results are given in words; binding and its absence hold for the method and conditions named. For part of these data: Binding seen in cells or lysates may run through a third protein. Some binding calls cover weakened binding; strength is not graded here.

Amino acid sequences for entries named in this document (tags omitted).
UniProt Q60631: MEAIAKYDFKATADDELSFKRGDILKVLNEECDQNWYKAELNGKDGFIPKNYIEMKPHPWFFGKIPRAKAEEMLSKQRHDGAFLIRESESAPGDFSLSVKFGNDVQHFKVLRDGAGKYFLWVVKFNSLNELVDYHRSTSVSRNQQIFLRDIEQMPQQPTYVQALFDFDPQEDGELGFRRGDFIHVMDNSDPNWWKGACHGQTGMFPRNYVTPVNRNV

How the values were obtained:
[1] = target: T1, s-SHIP (stem-SHIP; SH2-lacking isoform of SH2-containing inositol 5'-phosphatase, approximately 104 kd) (mouse) (UniProt Q9ES52); experiment: reciprocal co-immunoprecipitation from ES cell lysate, immunoblot with P2C6
T1 sequence (looked up): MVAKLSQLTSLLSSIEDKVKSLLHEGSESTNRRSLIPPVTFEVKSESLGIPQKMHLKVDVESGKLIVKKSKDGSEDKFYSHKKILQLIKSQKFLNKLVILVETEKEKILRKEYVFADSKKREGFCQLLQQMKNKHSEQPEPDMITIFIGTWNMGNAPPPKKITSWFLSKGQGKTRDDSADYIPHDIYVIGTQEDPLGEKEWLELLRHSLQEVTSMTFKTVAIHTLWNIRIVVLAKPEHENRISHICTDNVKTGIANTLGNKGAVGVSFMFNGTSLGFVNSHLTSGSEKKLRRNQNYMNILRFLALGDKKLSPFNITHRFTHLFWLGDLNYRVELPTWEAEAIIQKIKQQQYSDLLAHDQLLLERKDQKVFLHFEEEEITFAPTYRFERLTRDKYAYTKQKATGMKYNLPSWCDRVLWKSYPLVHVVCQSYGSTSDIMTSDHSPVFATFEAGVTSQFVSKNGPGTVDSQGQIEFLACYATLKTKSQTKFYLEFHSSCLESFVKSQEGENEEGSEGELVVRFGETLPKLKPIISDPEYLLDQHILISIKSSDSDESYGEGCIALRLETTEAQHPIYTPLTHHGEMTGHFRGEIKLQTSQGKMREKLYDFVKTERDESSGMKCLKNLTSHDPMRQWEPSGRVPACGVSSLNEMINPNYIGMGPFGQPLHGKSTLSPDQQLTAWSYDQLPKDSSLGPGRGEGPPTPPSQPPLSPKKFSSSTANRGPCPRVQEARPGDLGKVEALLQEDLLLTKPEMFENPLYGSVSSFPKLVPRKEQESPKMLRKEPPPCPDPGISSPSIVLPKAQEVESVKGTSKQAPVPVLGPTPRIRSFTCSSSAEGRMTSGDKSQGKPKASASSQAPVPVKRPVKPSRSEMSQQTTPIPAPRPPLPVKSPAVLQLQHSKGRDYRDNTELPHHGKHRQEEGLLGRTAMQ

[2] = target: T1, s-SHIP (stem-SHIP; SH2-lacking isoform of SH2-containing inositol 5'-phosphatase, approximately 104 kd) (mouse); experiment: immunoprecipitation of ES-TL1 lysate with anti-Grb2 polyclonal antibody, immunoblot with P2C6 (FIG. 6C)
[3] = target: Grb2 adapter protein (not stated (endogenous in murine ES cells)) (UniProt Q60631); experiment: co-immunoprecipitation from ES cell lysate
[4] = target: Grb2 adapter protein (not stated (endogenous in murine ES cells)) (UniProt Q60631); experiment: co-immunoprecipitation from ES cell lysate (FIG. 6)
[5] = target: Grb2 adapter protein (not stated (endogenous in murine ES cells)) (UniProt Q60631); experiment: co-immunoprecipitation from ES cell lysate, immunoblot
[6] = target: Grb2 adapter protein (not stated (endogenous in murine ES cells)) (UniProt Q60631); experiment: immunoprecipitation of ES-TL1 lysate with anti-SHIP antibody, immunoblot for Grb2 (FIG. 6B)

Measured: binding

Grb2 adapter protein (from UniProt Q60631 1-217)
binds: [1] | [2]

B1: s-SHIP (stem-SHIP; SH2-lacking isoform of SH2-containing inositol 5'-phosphatase, approximately 104 kd) (enzyme, mouse, UniProt Q9ES52-5 1-928, looked up)
chain: T1 sequence (looked up)
notes: also called 8-SHIP protein isoform; 104-kd and 97-kd proteins
binds: [3] | [4] | [5] | [6]
